Results from PubChem BioAssay AID2685 (National Center for Advancing Translational Sciences (NCATS), 2010).
The other results are listed elsewhere or left out. The main result of the screen is listed elsewhere. These columns were measured beside it and carry no call. The list favours compounds with an active or inconclusive main result. Potencies come from curve fits of mixed quality, noted in brackets.

Experiment: qHTS Assay for Lipid Storage Modulators in Drosophila S3 Cells;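 on cell number change: cells counted by Cell Tracker Red CMTPX staining in the red channel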
Details: BODIPY lipid droplet fluorescence, 18-24 h; for cell number change: measured here: cell count max response, cells fed with added oleic acid
Procedure, shortened: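 Drosophila S3 cells got compounds at several concentrations plus oleic acid (400 uM solution). Laser-scanning cytometry with 488 nm excitation read lipid droplets at 500-530 nm and cells at 575-640 nm. Percent activity was relative to 20 uM Triacsin C.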

[1] = measured here: lipid fluorescence (Fed channel) AC50, cells fed with added oleic acid
[2] = measured here: cell number channel AC50, cells fed with added oleic acid

SMILES: Cc1noc(C)c1CSc1nnc2ccccn12
- cell number change: 4.92%
- AC50 [1]: 7.31 µM [falling, single point]

SMILES: COc1ccccc1N1CCN(CC(=O)Nc2c(C)n[nH]c2C)CC1
- cell number change: -4.05%

SMILES: Cc1ccc(C)c(OC(=O)C2CSC3(C)CCC(=O)N23)c1C (configuration not stated)
- cell number change: -14.6%

SMILES: CCOC(=O)C1CCN(C(=O)COC(=O)c2nc3nc(C)cc(C)n3n2)CC1
- cell number change: 90.2%
- AC50 [2]: 23.1 µM [rising, partial curve]
- AC50 [1]: 6.51 µM [rising, single point]

SMILES: COc1cccc(NC(=O)CCCCCN2C(=O)[C@@H]3Cc4ccccc4CN3C2=O)c1
- cell number change: 13.2%
- AC50 [1]: 20.6 µM [rising, single point]

SMILES: COC(=O)C1=C(C)NC(C)=C(C(=O)OC)C1c1ccc(OC(=O)c2oc3ccccc3c2C)c(OC)c1
- cell number change: 41.3%
- AC50 [2]: 6.51 µM [rising, partial curve]
- AC50 [1]: 8.2 µM [rising, partial curve]

SMILES: CCOc1ccc(S(=O)(=O)Nc2cc(OC)c(OC)cc2C(=O)O)cc1
- cell number change: -40.1%
- AC50 [2]: 29.1 µM [falling, single point]
- AC50 [1]: 29.1 µM [rising, single point]

SMILES: S=C(Nc1ccccc1Cl)N1CCCC1
- cell number change: -25.7%
- AC50 [1]: 2.91 µM [falling, full curve]

SMILES: Cc1nn(C)c(C)c1NC(=O)CCl
- cell number change: -11.8%
- AC50 [1]: 3.66 µM [falling, single point]

SMILES: O=C(N/N=C/c1cccc(O)c1)c1ccc(NC(=O)C2CCCCC2)cc1
- cell number change: -26.9%
- AC50 [1]: 0.651 µM [falling, single point]

SMILES: CC(=O)c1cccc(N(C(=O)CNC(=O)c2ccco2)C(C(=O)NC2CCCC2)c2ccco2)c1 (configuration not stated)
- cell number change: 11.7%

SMILES: COc1ccccc1S(=O)(=O)Cc1ccc(C(=O)N2CCN(c3ccc(C)cc3)C(C)C2)o1 (configuration not stated)
- cell number change: 52%
- AC50 [2]: 18.4 µM [rising, partial curve, poor fit]

SMILES: Cc1ccc2nc(NC(=S)NC(=O)c3ccc(OC(C)C)cc3)sc2c1
- cell number change: 5.82%
- AC50 [1]: 20.6 µM [rising, partial curve, poor fit]

SMILES: Cc1ccc(N2CC(C(=O)N3CCc4ccccc43)CC2=O)cc1 (configuration not stated)
- cell number change: 18.4%

SMILES: CC(NC(=O)c1ccc(S(=O)(=O)N(C)C)cc1)c1ccccc1 (configuration not stated)
- AC50 [1]: 6.51 µM [falling, single point]

SMILES: CCc1ccccc1NNC(=O)CCc1ccccc1
- cell number change: -6.21%
- AC50 [1]: 0.0651 µM [falling, full curve, poor fit]

SMILES: Cc1cc(C)c(NC(=O)CO/N=C2\CCCc3nonc32)c(C)c1
- cell number change: -1.13%
- AC50 [1]: 13 µM [rising, partial curve, poor fit]

SMILES: CCOc1ccc(NS(=O)(=O)c2ccc(C(=O)NCC(c3ccco3)N(C)C)cc2)cc1 (configuration not stated)
- cell number change: 95.2%
- AC50 [2]: 18.4 µM [rising, partial curve]

SMILES: O=C(/C=C/c1ccco1)Nc1ccc2nn(-c3ccccc3)nc2c1
- cell number change: -20.4%
- AC50 [1]: 10.3 µM [falling, partial curve]

SMILES: Cc1cc(C(=O)N2CC=C(c3ccccc3)CC2)c2ccccc2n1
- AC50 [1]: 6.51 µM [rising, partial curve]

SMILES: CN1CCN(C(=O)c2cc3nc(-c4ccccc4)cc(-c4ccccc4)n3n2)CC1
- AC50 [1]: 1.84 µM [rising, partial curve]

SMILES: Cc1c(OCC(=O)N2CCC(C(=O)O)CC2)ccc2c3c(c(=O)oc12)CCCC3
- cell number change: 37.6%
- AC50 [2]: 9.2 µM [rising, partial curve]
- AC50 [1]: 6.51 µM [rising, single point]

SMILES: CO/N=C/NC(=O)NOCc1ncc(C(F)(F)F)cc1Cl
- cell number change: 41.4%
- AC50 [2]: 25.9 µM [rising, single point]

SMILES: Cn1cccc1Cc1nnc(SCC(=O)Nc2nccs2)n1C
- cell number change: -85%
- AC50 [2]: 29.1 µM [falling, single point]

SMILES: O=C(O)c1ccc2c(c1)C(=O)/C(=C/c1ccccc1)C2=O
- cell number change: -1.11%
- AC50 [1]: 0.13 µM [falling, full curve, poor fit]

SMILES: COc1cccc(CNC(=O)CN(C)S(=O)(=O)c2ccc3c(c2)CC(C)N3C(C)=O)c1 (configuration not stated)
- cell number change: 23.4%
- AC50 [1]: 29.1 µM [rising, single point]

SMILES: CC(C)n1c(N2CCN(CC(=O)Nc3ccc4c(c3)OCCO4)CC2)nc2ccccc21
- AC50 [2]: 6.51 µM [rising, single point]

SMILES: CCOC(=O)N1CCN(C(=O)CNC(=O)c2ccc(Cl)cc2)CC1
- cell number change: -18.2%
- AC50 [1]: 29.1 µM [rising, single point]

SMILES: O=C(CCN1CCN(c2ccc([N+](=O)[O-])cc2)CC1)c1ccc(Cl)cc1
- cell number change: 6.61%
- AC50 [1]: 6.51 µM [falling, single point]

SMILES: CC(C)Oc1ccc(C(CC(=O)NCCCN(C)C)c2ccc(F)cc2)cc1 (configuration not stated)
- cell number change: 53.9%
- AC50 [2]: 29.1 µM [rising, single point]
- AC50 [1]: 0.146 µM [rising, full curve, poor fit]

SMILES: CC(=O)N1CCN=C1SCc1cccc(C(F)(F)F)c1
- cell number change: 14.2%
- AC50 [1]: 29.1 µM [rising, single point]

SMILES: COc1cc2c(cc1OC)C(C(=O)Nc1ccccc1N1CCN(C)CC1)C1c3ccccc3CCN1C2=O (configuration not stated)
- cell number change: -32.8%
- AC50 [2]: 18.4 µM [falling, partial curve, poor fit]
- AC50 [1]: 29.1 µM [falling, single point]

SMILES: COc1ccc(C(NC(=O)CC(C)C)c2c(O)ccc3ccccc23)cc1 (configuration not stated)
- cell number change: -6.48%
- AC50 [1]: 29.1 µM [falling, single point]

SMILES: Cc1c(C)c2c(OCC(=O)NCC(O)c3ccccc3)cc3c(c2oc1=O)CCC(C)(C)O3 (configuration not stated)
- cell number change: -16.8%

SMILES: Cc1ccc(C(=O)Nc2c3c(nn2C(C)(C)C)CS(=O)(=O)C3)cc1C
- cell number change: 16.2%
- AC50 [1]: 16.4 µM [falling, partial curve]

SMILES: COc1ccc(NC(=O)CSC2=NC(=O)CC(C)=N2)cc1
- cell number change: 7.47%
- AC50 [1]: 0.184 µM [rising, full curve, poor fit]

SMILES: CCn1c(CCNC(=O)c2ccc(Cl)cc2)n[nH]c1=S
- AC50 [1]: 1.64 µM [falling, partial curve]

SMILES: CCOc1ccc(Cl)cc1CSc1n[nH]c(CC)n1
- cell number change: 29.6%
- AC50 [1]: 2.06 µM [rising, partial curve]

SMILES: COc1ccc(C(=O)NCC(c2ccco2)N2CCc3ccccc32)cc1 (configuration not stated)
- AC50 [1]: 6.51 µM [rising, single point]

SMILES: N#C/C(=C\c1ccc(-c2cccc([N+](=O)[O-])c2)o1)C(=O)NCCN1CCOCC1
- cell number change: 75.5%
- AC50 [2]: 29.1 µM [rising, single point]

SMILES: CCCCS(=O)(=O)Nc1ccc2cn[nH]c2c1
- cell number change: 42.3%
- AC50 [2]: 23.1 µM [rising, single point]
- AC50 [1]: 20.6 µM [rising, partial curve, poor fit]

SMILES: COCC(=O)NC(c1ccccc1)c1ccccc1
- cell number change: -71.4%
- AC50 [2]: 29.1 µM [falling, single point]

SMILES: Cc1coc(C)c1C(=O)CC1(O)C(=O)N(CCc2ccccc2)c2ccccc21 (configuration not stated)
- cell number change: -14.6%
- AC50 [1]: 20.6 µM [rising, single point]

SMILES: COc1ccccc1-[n+]1c(C)cc(/C=C2\Sc3ccccc3N2C)cc1C
- AC50 [1]: 0.411 µM [falling, partial curve]

SMILES: O=C(NC(O)C(=O)c1ccccc1)c1cccs1 (configuration not stated)
- cell number change: -54.3%
- AC50 [2]: 4.61 µM [falling, full curve]
- AC50 [1]: 4.11 µM [falling, full curve]

SMILES: CCN(CC)CCNC(=O)c1ccc(NC(=O)c2c(C)nn(-c3ccc(F)cc3)c2Cl)cc1
- cell number change: -7.14%
- AC50 [1]: 29.1 µM [rising, single point]

SMILES: Cc1ccc(S(=O)(=O)c2cc3c(=O)n4cccc(C)c4nc3n(C3CCCCC3)c2=N)cc1
- cell number change: 34.2%
- AC50 [2]: 0.92 µM [rising, full curve]

SMILES: CCOC(=O)c1ccccc1Nc1cn(C(C)=O)c2ccccc12
- AC50 [1]: 3.66 µM [rising, partial curve]

SMILES: O=C1CN(C(=O)c2c(F)cccc2F)C(c2ccc(F)cc2)c2cc(Br)ccc2N1 (configuration not stated)
- cell number change: -22.7%
- AC50 [1]: 23.1 µM [falling, single point]

SMILES: CCOc1ccc(OCC(=O)OCC(=O)Nc2ccccc2C#N)cc1
- cell number change: -15.7%

SMILES: O=C(CCCCCn1c(SCC(=O)c2ccccc2)nc2ccccc2c1=O)NCc1ccco1
- cell number change: -42.3%
- AC50 [2]: 29.1 µM [falling, single point]

SMILES: Cc1nnc(NC(=O)c2nc(S(=O)(=O)Cc3ccccc3)ncc2Cl)s1
- cell number change: 7.59%

SMILES: COc1cccc(-c2nn(C)c3sc(C(=O)NCc4ccc5c(c4)OCO5)cc23)c1
- cell number change: 14.4%

SMILES: O=C(c1cc(COc2cccc(C(F)(F)F)c2)on1)N1CCC(c2ccncc2)CC1
- cell number change: -15.7%
- AC50 [1]: 0.651 µM [falling, full curve, poor fit]

SMILES: O=c1c2ccccc2n(Cc2ccc(F)cc2)c(=O)n1C1CCCC1
- cell number change: 87.6%
- AC50 [2]: 5.17 µM [rising, full curve]
- AC50 [1]: 6.51 µM [rising, full curve]

SMILES: COC(=O)c1cc(NC(=O)c2cc(-c3ccc(Cl)cc3)oc2C(F)(F)F)ccc1N1CCOCC1
- cell number change: 20.6%
- AC50 [1]: 32.6 µM [rising, single point]

SMILES: COc1cccc(-n2c(N)cc(=O)nc2SCC(=O)N2CCN(c3ccccc3)CC2)c1
- cell number change: 55.1%
- AC50 [2]: 25.9 µM [rising, partial curve, poor fit]

SMILES: CCCOc1cccc(C(=O)Nc2ccc(Br)cc2F)c1
- cell number change: -45%
- AC50 [2]: 29.1 µM [falling, single point]

SMILES: Cc1cc2nc3ccc(=[N+](C)C)cc-3sc2cc1N
- cell number change: -29.1%
- AC50 [1]: 5.8 µM [falling, partial curve]

SMILES: CCCCCCc1ccc(N2C[C@H](CCCCC)[C@@H](CC(=O)NCc3ccc(OC)cc3)C2=O)cc1
- cell number change: 22.5%
